From the supplement of paper PMC3334620
In all, about 33,000 sequences were measured (“E-score (-0.5 to 0.5)”: median about -0.015, highest 2% from about 0.3 on). The list shows a part of the results.

Biological target: T1, Abf1 (UniProt P14164)
T1 sequence: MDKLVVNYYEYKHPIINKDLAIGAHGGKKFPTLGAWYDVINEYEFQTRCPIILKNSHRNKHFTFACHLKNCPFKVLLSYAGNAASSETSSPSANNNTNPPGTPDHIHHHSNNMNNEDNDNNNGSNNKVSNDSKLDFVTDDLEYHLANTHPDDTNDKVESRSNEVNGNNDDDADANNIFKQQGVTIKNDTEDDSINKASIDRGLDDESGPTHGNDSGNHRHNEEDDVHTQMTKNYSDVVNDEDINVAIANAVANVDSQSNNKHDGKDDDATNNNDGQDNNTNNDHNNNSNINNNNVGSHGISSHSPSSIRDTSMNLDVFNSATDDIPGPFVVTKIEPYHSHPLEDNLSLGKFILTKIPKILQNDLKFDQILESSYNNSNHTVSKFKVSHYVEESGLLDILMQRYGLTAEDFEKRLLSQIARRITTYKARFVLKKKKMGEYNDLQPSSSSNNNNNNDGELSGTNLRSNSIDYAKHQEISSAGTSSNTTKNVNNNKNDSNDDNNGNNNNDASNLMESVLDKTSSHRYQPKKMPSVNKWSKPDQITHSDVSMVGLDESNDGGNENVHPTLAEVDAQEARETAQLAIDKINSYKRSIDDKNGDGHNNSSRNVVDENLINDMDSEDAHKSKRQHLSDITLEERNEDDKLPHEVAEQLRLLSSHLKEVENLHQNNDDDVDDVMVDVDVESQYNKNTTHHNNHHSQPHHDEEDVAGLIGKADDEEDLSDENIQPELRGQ
Test: PBM E-score (8-mer binding enrichment) (E-score (-0.5 to 0.5)); higher = stronger / more preferred TF binding
Settings: protein concentration: 200 nM; construct: GST-full length
How it was run: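 For each ungapped eight-base word taken together with its reverse complement, the Universal PBM Analysis Suite assigned an E-score. Binding data came from GST-tagged yeast transcription factors, applied at about 100-200 nM, on universal all-10-mer Agilent arrays made double-stranded by primer extension. Fluorescent anti-GST marked bound protein, and scans were normalised with masliner.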

Sequence	PBM E-score
TACATTAA	0.227
AGATTTAG	0.0517
AGTGCGAC	-0.0741
CGAAAGAA	-0.0243
AGCGAGGG	-0.124
ACCCGAGG	-0.209
TGTGTTAA	0.134
TACTGGGA	0.0985
CTCGTTGC	0.164
ATGGTTTA	0.0544
CCATTATA	0.151
CGCGTTCA	-0.171
ATACATGC	-0.111
CATGCCGG	-0.00463
GCAGGAAC	-0.151
CTATGACA	0.0945
GTACACAA	0.184
GTACAACA	0.197
ACGATGGC	0.0358
AACAGAAA	-0.0575
CGTCTTGA	0.199
AAGACGCA	-0.15
GCGCCCGA	-0.114
AGTTTTAG	-0.0916
GTTACTTA	0.133

Sequence	PBM E-score
TAGCGACA	0.288
CACCAGAG	-0.146
AGCTCCAC	-0.216
AAATAAGG	-0.0719
ATCGGCGC	-0.0687
ACGCCTCA	-0.0655
GCATTAAC	-0.0317
GGTATAAC	0.0343
ACACGATG	0.203
AGGAAGAC	-0.114
TCATCGGA	0.103
TCGGGGCA	-0.0893
CGCTAACC	-0.108
TAGGATAA	0.183
ATCGTCAC	0.389
ACATTTTC	0.158
GACCTCCC	-0.137
CCAGAAGG	-0.174
GTGCTTAA	0.0641
ACTGACAA	0.129
GCAAGTCA	0.1
ACAACTAA	0.135
GGACATGA	0.0626
ATCCTAAA	-0.0804
ACCTAATA	0.244

Part of the list above, set out differently.
Sequence,PBM E-score
AGTGCGAC,-0.0741
CGAAAGAA,-0.0243
AGCGAGGG,-0.124
ACCCGAGG,-0.209
TGTGTTAA,0.134
TACTGGGA,0.0985
CTCGTTGC,0.164
ATGGTTTA,0.0544
CCATTATA,0.151
CGCGTTCA,-0.171
ATACATGC,-0.111
CATGCCGG,-0.00463
GCAGGAAC,-0.151
CTATGACA,0.0945
GTACACAA,0.184
GTACAACA,0.197
ACGATGGC,0.0358
AACAGAAA,-0.0575
CGTCTTGA,0.199
AAGACGCA,-0.15
GCGCCCGA,-0.114
AGTTTTAG,-0.0916
GTTACTTA,0.133
TAGCGACA,0.288
CACCAGAG,-0.146
AGCTCCAC,-0.216
AAATAAGG,-0.0719
ATCGGCGC,-0.0687
ACGCCTCA,-0.0655
GCATTAAC,-0.0317
GGTATAAC,0.0343
ACACGATG,0.203
AGGAAGAC,-0.114
TCATCGGA,0.103
TCGGGGCA,-0.0893
CGCTAACC,-0.108
TAGGATAA,0.183
ATCGTCAC,0.389
ACATTTTC,0.158
GACCTCCC,-0.137
CCAGAAGG,-0.174
GTGCTTAA,0.0641
ACTGACAA,0.129
GCAAGTCA,0.1
ACAACTAA,0.135
GGACATGA,0.0626

Next records:

Sequence	PBM E-score
AGGACTGG	-0.213
CCTCCTAG	-0.0889
CTCCAGAG	-0.074
GTGACATA	0.43
GGTCGCGA	0.206
AGGGTGCC	-0.143
ATAGTCAA	0.0287
GGGTGTAA	-0.157
ACCAAGGG	-0.308
AATTCAAA	0.155
ACGGACAT	0.191
CACAAAGG	-0.116
AGCAGACA	-0.299
CCCACTGA	-0.0846
CCCAGTCC	-0.132
CCACAGCC	-0.177
TAGATGGA	-0.105
GAGTCCGC	-0.305
ATCACAAT	0.113
CACGGAAA	0.267
ACGTGACG	0.201
CTAGCAAC	-0.0327
TCCACGCA	-0.0312
GTAGAATA	0.0756
GGACGCAC	-0.0653

Sequence	PBM E-score
ACACGAAT	0.266
GTATCGGA	-0.0348
CAGCTCGG	-0.199
AATATGAA	0.172
CTGCCTGA	-0.0137
ACTACCGA	-0.183
ATTCCGCG	-0.121
AACCTAAT	-0.0324
AAGCCAGA	-0.034
GATGGCCC	-0.202
GAAGACTA	0.0253
GATAACAA	0.0871
ATGGCGTA	-0.0835
ACTAACGG	0.0692
GCTACTTA	-0.00761
CTACTCCA	-0.0599
GACTGAGA	0.105
ACTCGCCT	-0.0504
AGGGTGGC	-0.114
CGCTCGAG	0.0681
CATGGTGA	0.187
GCGTCCCC	-0.291
CTCCACGC	0.00872
CCCTAGTA	-0.0961
ACCGACCT	-0.0411

Sequence	PBM E-score
AAAACTAC	-0.0222
AGCTGGAC	-0.0422
CTACCTAA	-0.0721
GACTCTGC	0.0155
GGAATGTA	0.163
CTTTGGCA	-0.114
GGGCCAAC	-0.177
AAAAGGAA	0.0172
AACAGGAT	-0.0163
ACCGGACC	-0.113
CCAATGTC	0.0633
CATGTGAA	-0.147
CATGGCTC	-0.265
GGTCAAAA	0.144
CCCAGGGC	-0.23
GAGGGATC	-0.219
AGTCGGCG	-0.196
GAAGTTTA	0.143
ACTCGTGC	-0.073
CCAACGCA	-0.0492
TAAGCAGA	-0.0468
GACGACTC	0.14
ACCTTAGT	-0.139
CCCAACGA	0.167
AGACCTCA	0.0225

Sequence	PBM E-score
AGGACTCA	-0.0358
AACCTGAC	-0.218
AGCTGAAA	0.108
AGGTACTC	0.00309
ACCTGCGG	-0.107
CACGATCA	0.272
CGCATGCC	-0.053
AATGTCCT	-0.0347
ATGGCTCA	-0.186
CAGTGGCG	-0.173
AGATGCTC	0.0161
GTAGGCCA	0.0735
CGTCCCAG	-0.0823
ACGTGTTG	0.143
GAAGTTGC	-0.00688
ACCGATGG	-0.233
AGCTATAC	-0.152
CGACATAA	0.22
CTCGCAGC	-0.0599
GCTATTTA	0.0236
GAAGCATA	0.0655
ATGACGGA	0.171
AATCATCA	0.317
ACAGCAGG	-0.00451
CATGGAAA	0.0198

Sequence	PBM E-score
GAGTGGGA	0.0759
CCACGCGG	-0.0923
CCCATTAA	-0.138
AAAAGACA	0.0467
ACGCACTG	-0.0673
ACCGAGAA	0.0615
CTCCTAAC	-0.0523
CTGTTTAC	0.0856
ACTCTGCC	-0.0526
CCAGTTAA	0.0671
AATTCATA	0.174
CCATAGAC	-0.206
GTTATCCA	0.00926
AACGTAGG	-0.17
GACCGTCC	-0.0137
AACACGTA	-0.00217
GAGCGCTA	-0.037
GCCAGGAA	-0.102
AGTGACAT	0.43
CAAAGCTC	-0.259
CCAAACAG	0.0638
GAGTAGAC	0.0485
